Laboratory results reported in PMC8576903.
These are yes or no findings as the source states them, for the method shown. In cells and extracts the contact can be indirect. Some results given as binding are weak or reduced against the parent protein; the word gives no strength.

Chains of the proteins cited; added tags and fusions are not shown.
UniProt P01106: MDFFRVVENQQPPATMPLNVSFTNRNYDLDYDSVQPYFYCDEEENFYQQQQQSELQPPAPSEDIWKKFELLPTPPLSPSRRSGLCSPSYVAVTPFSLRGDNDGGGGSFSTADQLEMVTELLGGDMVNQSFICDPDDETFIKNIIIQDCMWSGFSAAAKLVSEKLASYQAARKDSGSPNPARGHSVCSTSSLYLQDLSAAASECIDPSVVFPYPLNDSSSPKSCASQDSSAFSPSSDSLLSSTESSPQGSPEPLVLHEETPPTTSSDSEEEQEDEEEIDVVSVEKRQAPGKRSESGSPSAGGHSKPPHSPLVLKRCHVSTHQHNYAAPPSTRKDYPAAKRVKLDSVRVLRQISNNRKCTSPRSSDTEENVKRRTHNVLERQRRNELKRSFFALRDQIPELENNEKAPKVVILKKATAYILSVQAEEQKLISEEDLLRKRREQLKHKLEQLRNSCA
UniProt P67809: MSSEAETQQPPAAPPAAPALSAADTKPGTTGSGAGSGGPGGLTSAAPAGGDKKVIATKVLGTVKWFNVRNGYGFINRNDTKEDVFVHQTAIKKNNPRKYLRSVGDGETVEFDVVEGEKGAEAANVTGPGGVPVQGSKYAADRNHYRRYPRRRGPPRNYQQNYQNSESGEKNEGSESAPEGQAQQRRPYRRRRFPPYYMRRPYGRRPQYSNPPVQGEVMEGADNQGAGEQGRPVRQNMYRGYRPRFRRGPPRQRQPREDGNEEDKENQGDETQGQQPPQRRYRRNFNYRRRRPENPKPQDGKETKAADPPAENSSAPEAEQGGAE

Target: proto-oncogene c-Myc (human (endogenous in U937)) (UniProt P01106)
Experiment: co-IP; endogenous proteins in U937 cells; antibodies specific for YBX1 (ab76149) and MYC (ab32072), IgG as negative control, Western blot; also in U937 cells stably transfected with mock, GAS6-AS1, sh-Scb or sh-GAS6-AS1

In the case of “Y-box binding protein 1 (from UniProt P67809 1-324)”, the binding is reported as “binds”.
